Source: the supplement of paper PMC10849652
This is one part of the list.

Sequences of proteins named here, by UniProt entry; tags and fusion partners are left off. A change or cut given only in a name is not applied to a line headed by its entry.
UniProt Q96EX1: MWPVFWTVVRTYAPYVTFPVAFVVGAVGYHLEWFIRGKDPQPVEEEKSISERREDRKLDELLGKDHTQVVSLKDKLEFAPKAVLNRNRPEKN
UniProt Q13485: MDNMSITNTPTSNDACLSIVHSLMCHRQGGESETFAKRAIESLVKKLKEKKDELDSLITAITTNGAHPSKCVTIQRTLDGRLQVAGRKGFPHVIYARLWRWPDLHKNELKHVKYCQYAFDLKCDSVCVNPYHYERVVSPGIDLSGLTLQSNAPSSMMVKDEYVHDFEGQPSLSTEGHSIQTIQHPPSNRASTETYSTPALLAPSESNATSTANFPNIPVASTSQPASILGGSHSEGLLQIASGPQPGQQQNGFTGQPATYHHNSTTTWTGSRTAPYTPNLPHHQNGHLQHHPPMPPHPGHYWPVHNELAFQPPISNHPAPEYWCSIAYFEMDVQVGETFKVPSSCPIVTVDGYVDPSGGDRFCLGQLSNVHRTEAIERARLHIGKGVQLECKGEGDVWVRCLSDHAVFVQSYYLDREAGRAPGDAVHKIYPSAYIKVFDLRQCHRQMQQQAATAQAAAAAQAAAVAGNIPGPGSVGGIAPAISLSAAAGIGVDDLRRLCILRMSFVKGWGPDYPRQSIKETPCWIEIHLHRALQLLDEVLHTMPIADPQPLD
UniProt O95721: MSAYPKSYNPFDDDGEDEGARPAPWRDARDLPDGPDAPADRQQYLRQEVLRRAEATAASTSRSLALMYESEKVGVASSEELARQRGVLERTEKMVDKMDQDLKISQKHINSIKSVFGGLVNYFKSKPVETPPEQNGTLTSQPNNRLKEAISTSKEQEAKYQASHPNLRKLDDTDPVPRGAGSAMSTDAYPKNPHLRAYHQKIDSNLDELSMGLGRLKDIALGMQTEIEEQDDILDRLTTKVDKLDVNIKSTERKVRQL
UniProt Q9Y2E8: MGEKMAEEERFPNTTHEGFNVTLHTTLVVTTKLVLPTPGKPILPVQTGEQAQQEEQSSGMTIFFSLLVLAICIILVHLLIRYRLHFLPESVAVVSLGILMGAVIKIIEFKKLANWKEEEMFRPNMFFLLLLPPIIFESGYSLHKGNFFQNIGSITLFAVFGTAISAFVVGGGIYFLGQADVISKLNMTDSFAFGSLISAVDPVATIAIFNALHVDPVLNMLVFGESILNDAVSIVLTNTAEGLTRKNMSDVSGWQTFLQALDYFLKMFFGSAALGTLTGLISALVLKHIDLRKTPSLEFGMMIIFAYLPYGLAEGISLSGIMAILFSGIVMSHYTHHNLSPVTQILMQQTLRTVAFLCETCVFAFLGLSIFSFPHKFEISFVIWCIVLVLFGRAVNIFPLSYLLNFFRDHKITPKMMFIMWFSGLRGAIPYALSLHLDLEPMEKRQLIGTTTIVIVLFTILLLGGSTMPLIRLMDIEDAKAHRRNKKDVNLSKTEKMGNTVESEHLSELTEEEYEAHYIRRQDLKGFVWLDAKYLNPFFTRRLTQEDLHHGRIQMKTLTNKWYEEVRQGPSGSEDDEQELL
UniProt P62314, whole entry, looked up: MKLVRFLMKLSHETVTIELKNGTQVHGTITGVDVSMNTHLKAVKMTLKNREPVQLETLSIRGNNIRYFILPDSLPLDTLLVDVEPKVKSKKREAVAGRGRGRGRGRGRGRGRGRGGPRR
UniProt P62308, whole entry, looked up: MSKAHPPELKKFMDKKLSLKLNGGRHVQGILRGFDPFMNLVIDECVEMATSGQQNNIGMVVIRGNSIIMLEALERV
UniProt O95295: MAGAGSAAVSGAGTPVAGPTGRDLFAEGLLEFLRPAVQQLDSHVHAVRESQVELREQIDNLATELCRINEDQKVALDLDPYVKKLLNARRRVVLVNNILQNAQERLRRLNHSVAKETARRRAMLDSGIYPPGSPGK
UniProt P62306, whole entry, looked up: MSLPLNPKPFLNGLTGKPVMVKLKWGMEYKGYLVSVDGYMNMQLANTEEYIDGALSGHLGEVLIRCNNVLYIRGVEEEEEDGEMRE
UniProt O75643, whole entry, looked up: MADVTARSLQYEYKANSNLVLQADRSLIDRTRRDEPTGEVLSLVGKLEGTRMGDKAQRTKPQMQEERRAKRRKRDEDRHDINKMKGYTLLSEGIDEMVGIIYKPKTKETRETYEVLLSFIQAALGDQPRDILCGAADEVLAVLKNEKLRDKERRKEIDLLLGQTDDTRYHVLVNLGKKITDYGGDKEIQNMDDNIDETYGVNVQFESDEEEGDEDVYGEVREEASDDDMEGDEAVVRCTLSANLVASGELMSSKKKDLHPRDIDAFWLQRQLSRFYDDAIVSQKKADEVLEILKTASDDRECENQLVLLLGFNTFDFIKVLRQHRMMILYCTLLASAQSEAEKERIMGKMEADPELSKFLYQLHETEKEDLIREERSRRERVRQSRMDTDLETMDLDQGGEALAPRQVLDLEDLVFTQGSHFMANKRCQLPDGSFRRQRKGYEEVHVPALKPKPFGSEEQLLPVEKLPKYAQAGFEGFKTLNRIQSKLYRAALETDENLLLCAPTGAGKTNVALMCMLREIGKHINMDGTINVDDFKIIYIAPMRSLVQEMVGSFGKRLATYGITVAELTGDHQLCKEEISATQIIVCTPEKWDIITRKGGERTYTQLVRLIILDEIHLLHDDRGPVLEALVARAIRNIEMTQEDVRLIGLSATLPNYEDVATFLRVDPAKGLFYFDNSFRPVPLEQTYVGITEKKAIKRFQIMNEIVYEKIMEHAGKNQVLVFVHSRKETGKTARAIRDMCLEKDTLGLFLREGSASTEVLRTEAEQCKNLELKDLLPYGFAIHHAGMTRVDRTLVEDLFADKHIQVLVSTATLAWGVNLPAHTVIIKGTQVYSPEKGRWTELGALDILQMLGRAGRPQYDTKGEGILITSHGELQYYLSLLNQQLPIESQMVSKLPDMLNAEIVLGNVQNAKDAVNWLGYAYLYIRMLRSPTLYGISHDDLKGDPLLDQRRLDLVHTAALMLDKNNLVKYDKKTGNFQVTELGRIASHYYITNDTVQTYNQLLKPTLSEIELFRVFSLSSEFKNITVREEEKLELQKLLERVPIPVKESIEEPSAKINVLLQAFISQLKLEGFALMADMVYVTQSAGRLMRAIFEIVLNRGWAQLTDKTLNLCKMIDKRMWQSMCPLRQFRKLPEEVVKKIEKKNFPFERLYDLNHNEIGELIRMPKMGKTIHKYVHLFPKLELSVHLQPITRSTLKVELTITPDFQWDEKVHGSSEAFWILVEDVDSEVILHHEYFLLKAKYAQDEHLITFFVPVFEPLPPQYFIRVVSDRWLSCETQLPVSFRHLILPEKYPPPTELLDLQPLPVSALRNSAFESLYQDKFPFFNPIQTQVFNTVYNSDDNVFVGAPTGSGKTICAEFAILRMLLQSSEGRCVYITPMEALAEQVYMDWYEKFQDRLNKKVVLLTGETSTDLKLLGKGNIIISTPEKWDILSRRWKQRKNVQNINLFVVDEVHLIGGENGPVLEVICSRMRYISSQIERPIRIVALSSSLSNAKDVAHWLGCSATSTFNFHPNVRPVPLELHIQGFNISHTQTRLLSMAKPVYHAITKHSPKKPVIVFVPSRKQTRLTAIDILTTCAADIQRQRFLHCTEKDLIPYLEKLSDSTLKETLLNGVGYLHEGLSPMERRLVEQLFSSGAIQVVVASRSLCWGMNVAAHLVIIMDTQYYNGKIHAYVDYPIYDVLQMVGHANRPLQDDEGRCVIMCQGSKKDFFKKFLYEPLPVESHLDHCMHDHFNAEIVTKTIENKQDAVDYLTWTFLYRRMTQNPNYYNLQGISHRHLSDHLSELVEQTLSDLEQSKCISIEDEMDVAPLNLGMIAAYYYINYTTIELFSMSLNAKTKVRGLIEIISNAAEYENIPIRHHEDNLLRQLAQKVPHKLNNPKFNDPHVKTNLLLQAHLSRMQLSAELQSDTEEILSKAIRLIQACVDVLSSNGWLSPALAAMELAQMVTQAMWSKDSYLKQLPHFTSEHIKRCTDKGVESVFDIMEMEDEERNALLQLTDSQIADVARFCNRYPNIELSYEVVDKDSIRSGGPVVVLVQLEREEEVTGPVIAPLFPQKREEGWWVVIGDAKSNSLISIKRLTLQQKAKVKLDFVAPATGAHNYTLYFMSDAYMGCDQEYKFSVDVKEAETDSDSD
UniProt P28370, whole entry, looked up: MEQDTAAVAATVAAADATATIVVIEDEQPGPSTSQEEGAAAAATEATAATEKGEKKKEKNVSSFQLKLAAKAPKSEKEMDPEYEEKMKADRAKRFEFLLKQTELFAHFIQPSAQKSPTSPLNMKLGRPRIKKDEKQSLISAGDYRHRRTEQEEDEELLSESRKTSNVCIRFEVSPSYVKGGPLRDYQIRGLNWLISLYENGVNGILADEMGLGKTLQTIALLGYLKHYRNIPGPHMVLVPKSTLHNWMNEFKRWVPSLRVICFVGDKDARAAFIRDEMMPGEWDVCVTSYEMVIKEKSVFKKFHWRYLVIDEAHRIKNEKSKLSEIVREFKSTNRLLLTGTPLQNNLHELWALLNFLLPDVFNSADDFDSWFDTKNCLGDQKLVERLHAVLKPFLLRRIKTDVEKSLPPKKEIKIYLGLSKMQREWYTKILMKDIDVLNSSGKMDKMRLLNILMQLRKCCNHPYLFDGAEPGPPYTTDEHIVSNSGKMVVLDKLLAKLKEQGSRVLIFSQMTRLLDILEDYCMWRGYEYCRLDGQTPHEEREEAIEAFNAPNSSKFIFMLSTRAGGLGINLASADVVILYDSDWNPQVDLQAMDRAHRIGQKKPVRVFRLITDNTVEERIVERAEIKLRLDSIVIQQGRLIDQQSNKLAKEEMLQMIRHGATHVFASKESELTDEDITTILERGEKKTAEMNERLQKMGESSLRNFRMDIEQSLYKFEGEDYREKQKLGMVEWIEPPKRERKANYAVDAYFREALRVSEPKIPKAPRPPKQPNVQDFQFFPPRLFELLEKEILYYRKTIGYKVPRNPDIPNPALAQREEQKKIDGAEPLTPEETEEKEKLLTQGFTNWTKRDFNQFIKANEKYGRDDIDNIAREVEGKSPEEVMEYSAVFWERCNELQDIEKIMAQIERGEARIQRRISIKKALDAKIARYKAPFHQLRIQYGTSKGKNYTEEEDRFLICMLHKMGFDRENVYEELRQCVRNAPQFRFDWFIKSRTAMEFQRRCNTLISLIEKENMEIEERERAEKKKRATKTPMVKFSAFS
UniProt O95347, whole entry, looked up: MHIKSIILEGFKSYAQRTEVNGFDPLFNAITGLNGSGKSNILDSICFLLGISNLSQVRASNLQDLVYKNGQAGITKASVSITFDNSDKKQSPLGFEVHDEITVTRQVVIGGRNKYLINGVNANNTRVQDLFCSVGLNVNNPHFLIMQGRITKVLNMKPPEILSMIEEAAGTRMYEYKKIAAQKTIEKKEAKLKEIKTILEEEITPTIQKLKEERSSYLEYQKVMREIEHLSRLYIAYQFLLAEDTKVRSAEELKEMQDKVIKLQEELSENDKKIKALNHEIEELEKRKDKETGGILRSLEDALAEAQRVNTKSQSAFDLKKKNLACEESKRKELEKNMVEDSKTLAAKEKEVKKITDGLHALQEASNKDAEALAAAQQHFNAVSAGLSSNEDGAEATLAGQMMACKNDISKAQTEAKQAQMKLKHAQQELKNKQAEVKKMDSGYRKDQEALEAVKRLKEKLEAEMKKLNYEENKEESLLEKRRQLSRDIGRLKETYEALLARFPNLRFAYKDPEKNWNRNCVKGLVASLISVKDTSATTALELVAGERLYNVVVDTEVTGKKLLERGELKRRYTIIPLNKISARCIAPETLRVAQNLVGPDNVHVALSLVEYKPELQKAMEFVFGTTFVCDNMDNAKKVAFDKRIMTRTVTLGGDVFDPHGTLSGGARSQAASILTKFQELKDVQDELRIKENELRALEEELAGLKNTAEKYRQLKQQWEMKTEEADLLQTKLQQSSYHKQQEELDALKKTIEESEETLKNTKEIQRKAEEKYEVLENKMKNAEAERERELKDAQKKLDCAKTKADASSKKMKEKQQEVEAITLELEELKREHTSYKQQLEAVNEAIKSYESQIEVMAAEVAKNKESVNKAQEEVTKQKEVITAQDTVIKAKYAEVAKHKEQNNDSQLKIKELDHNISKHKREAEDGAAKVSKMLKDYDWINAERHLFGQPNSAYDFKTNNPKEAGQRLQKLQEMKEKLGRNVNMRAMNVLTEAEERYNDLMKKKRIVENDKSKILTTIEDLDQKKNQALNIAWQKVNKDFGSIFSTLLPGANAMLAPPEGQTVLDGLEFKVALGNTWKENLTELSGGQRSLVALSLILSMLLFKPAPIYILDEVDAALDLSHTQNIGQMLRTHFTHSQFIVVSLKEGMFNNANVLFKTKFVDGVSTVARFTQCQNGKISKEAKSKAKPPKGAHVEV
UniProt P09661: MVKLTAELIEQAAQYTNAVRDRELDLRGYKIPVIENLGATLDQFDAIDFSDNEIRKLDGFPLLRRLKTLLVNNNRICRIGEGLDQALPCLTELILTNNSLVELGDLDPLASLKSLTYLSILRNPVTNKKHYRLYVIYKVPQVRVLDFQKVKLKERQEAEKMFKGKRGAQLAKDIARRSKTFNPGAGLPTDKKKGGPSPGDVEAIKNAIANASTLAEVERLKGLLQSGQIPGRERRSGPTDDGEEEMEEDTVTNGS

Legend:
Experiment in all cases: log2 fold change, soluble protein after heating vs DMSO (PISA); higher = thermal stabilisation; K562 cells, 10 uM, 30 min; active = over 0.2 and 3.5 SD of the protein, either way, in both replicates (recomputed)
saracatinib = compound: CN1CCN(CCOc2cc(OC3CCOCC3)c3c(Nc4c(Cl)ccc5c4OCO5)ncnc3c2)CC1 [saracatinib]
Method in brief: (§1)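 Thermal stability values are relative to control samples and come from duplicates. They are expressed as log2 fold changes. For measurement, K562 cells (2×10^6 cells/mL) received 10 μM compound for 30 min, and aliquots were heated for 3 min over 48°C-58°C, pooled, and extracted at 4°C in PBS with 0.5% NP-40. Soluble protein, the supernatant after 21,000xg for 90 min, was quantified by TMTpro 16plex LC-MS/MS with equalised channel sums.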

sotrastaurin = compound: CN1CCN(c2nc(C3=C(c4c[nH]c5ccccc45)C(=O)NC3=O)c3ccccc3n2)CC1 [sotrastaurin]
Method in brief: as §1

alvocidib = compound: CN1CC[C@H](c2c(O)cc(O)c3c(=O)cc(-c4ccccc4Cl)oc23)[C@H](O)C1 [alvocidib]
Method in brief: as §1

Tubastatin A = compound: CN1CCc2c(c3ccccc3n2Cc2ccc(C(=O)NO)cc2)C1 [Tubastatin A]
Method in brief: as §1

[1] = compound: CNC(=O)C1=CC=CC=C1NC2=NC(=NC=C2Cl)NC3=C(C=C(C=C3)N4CCOCC4)OC
Method in brief: as §1

defactinib = compound: CNC(=O)c1ccc(Nc2ncc(C(F)(F)F)c(NCc3nccnc3N(C)S(C)(=O)=O)n2)cc1 [defactinib]
Method in brief: as §1

rucaparib = compound: CNCc1ccc(-c2[nH]c3cc(F)cc4c3c2CCNC4=O)cc1 [rucaparib]
Method in brief: as §1

[2] = compound: CNc1nc(-c2ccc3c(N)n[nH]c3c2)cc(N2C[C@@H](C(=O)NC3CCCCC3)CC[C@H]2C)n1
Method in brief: as §1

encorafenib = compound: COC(=O)N[C@@H](C)CNc1nccc(-c2cn(C(C)C)nc2-c2cc(Cl)cc(NS(C)(=O)=O)c2F)n1 [encorafenib]
Method in brief: as §1

[3] = compound: COC(=O)[C@H](CCSC)NC(=O)C1=C(C=C(C=C1)NC[C@H](CS)N)C2=CC=CC=C2
Method in brief: as §1

Measured: log2 fold change

SLMAP (UniProt Q14BN4)
inactive: saracatinib -0.112 | sotrastaurin -0.078 | alvocidib 0 | Tubastatin A 0.13 | [1] -0.01 | defactinib -0.003 | rucaparib 0.112 | [2] 0.045 | encorafenib 0.028 | [3] -0.067

SMIM12 (UniProt Q96EX1)
inactive: saracatinib 0.006 | sotrastaurin 0.007 | alvocidib 0.016 | Tubastatin A 0.02 | [1] 0.023 | defactinib 0.113 | rucaparib 0.024 | [2] -0.013 | encorafenib -0.057 | [3] 0.074

SMPD2 (UniProt O60906)
inactive: saracatinib -0.028 | sotrastaurin 0.035 | alvocidib -0.047 | Tubastatin A -0.028 | [1] -0.052 | defactinib -0.032 | rucaparib 0.016 | [2] -0.038 | encorafenib -0.018 | [3] 0.027

SMC6 isoform 2 (UniProt Q96SB8)
inactive: saracatinib -0.003 | sotrastaurin 0.036 | alvocidib -0.05 | Tubastatin A 0.042 | [1] 0.082 | defactinib 0.013 | rucaparib -0.005 | [2] -0.058 | encorafenib 0.021 | [3] -0.02

SMS (UniProt P52788)
inactive: saracatinib 0.028 | sotrastaurin 0.024 | alvocidib -0.011 | Tubastatin A -0.033 | [1] -0.042 | defactinib 0.021 | rucaparib -0.072 | [2] -0.071 | encorafenib 0 | [3] 0.058

SMAD4 (UniProt Q13485)
inactive: saracatinib 0.032 | sotrastaurin -0.012 | alvocidib -0.071 | Tubastatin A -0.01 | [1] 0.007 | defactinib -0.036 | rucaparib 0.044 | [2] -0.034 | encorafenib -0.001 | [3] 0.04

SNAP29 (UniProt O95721)
inactive: saracatinib 0.017 | sotrastaurin -0.006 | alvocidib 0.004 | Tubastatin A -0.029 | [1] -0.037 | defactinib -0.014 | rucaparib -0.009 | [2] -0.06 | encorafenib -0.012 | [3] 0.029

SMARCC1 (UniProt Q92922)
inactive: saracatinib -0.073 | sotrastaurin -0.12 | alvocidib -0.151 | Tubastatin A -0.048 | [1] -0.043 | defactinib -0.163 | rucaparib 0.06 | [2] 0.09 | encorafenib 0.085 | [3] -0.021

SLC9A8 isoform 2 (UniProt Q9Y2E8)
inactive: saracatinib -0.02 | sotrastaurin 0.063 | alvocidib 0.093 | Tubastatin A -0.013 | [1] -0.009 | defactinib -0.019 | rucaparib 0.044 | [2] -0.093 | encorafenib 0.226 | [3] 0.002

Quoted from the entries so far (2 entries):
SMAD4 (UniProt Q13485)
inactive: saracatinib 0.032 | sotrastaurin -0.012 | alvocidib -0.071 | Tubastatin A -0.01 | [1] 0.007 | defactinib -0.036 | rucaparib 0.044 | [2] -0.034 | encorafenib -0.001 | [3] 0.04

SNAP29 (UniProt O95721)
inactive: saracatinib 0.017 | sotrastaurin -0.006 | alvocidib 0.004 | Tubastatin A -0.029 | [1] -0.037 | defactinib -0.014 | rucaparib -0.009 | [2] -0.06 | encorafenib -0.012 | [3] 0.029

Further results:

SNRPD1 (UniProt P62314)
inactive: saracatinib 0.027 | sotrastaurin 0.045 | alvocidib 0.111 | Tubastatin A -0.027 | [1] 0.009 | defactinib 0.166 | rucaparib 0.044 | [2] -0.115 | encorafenib -0.035 | [3] 0.042

SNRPC (UniProt P09234)
inactive: saracatinib 0.064 | sotrastaurin 0.013 | alvocidib 0.124 | Tubastatin A -0.004 | [1] -0.038 | defactinib 0.102 | rucaparib 0.023 | [2] -0.075 | encorafenib -0.093 | [3] 0.004

SNRPG (UniProt P62308)
inactive: saracatinib 0.123 | sotrastaurin -0.002 | alvocidib 0.011 | Tubastatin A -0.034 | [1] -0.028 | defactinib 0.127 | rucaparib 0.036 | [2] -0.059 | encorafenib -0.057 | [3] -0.001

SNX8 (UniProt Q9Y5X2)
inactive: saracatinib 0.073 | sotrastaurin 0.063 | alvocidib -0.01 | Tubastatin A -0.081 | [1] -0.026 | defactinib -0.046 | rucaparib -0.057 | [2] -0.083 | encorafenib 0.017 | [3] 0.056

SPAG5 (UniProt Q96R06)
inactive: saracatinib -0.146 | sotrastaurin -0.165 | alvocidib 0.048 | Tubastatin A 0.149 | [1] 0.009 | defactinib 0.054 | rucaparib 0.458 | [2] 0.169 | encorafenib 0.211 | [3] -0.01

SMG8 isoform 2 (UniProt Q8ND04)
inactive: saracatinib -0.087 | sotrastaurin 0.127 | alvocidib 0.092 | Tubastatin A 0.12 | [1] -0.188 | defactinib 0.095 | rucaparib -0.037 | [2] 0.02 | encorafenib 0.194 | [3] -0.107

SNRPC (UniProt Q5TAL2)
inactive: saracatinib -0.023 | sotrastaurin -0.12 | alvocidib 0.079 | Tubastatin A 0.202 | [1] -0.143 | defactinib 0.034 | rucaparib -0.015 | [2] -0.01 | encorafenib -0.055 | [3] -0.015

SNAPIN (UniProt O95295)
inactive: saracatinib 0.01 | sotrastaurin 0.029 | alvocidib 0.001 | Tubastatin A -0.031 | [1] -0.06 | defactinib -0.031 | rucaparib -0.001 | [2] 0.017 | encorafenib -0.06 | [3] 0.023

SNRPF (UniProt P62306)
inactive: saracatinib -0.024 | sotrastaurin -0.055 | alvocidib 0.107 | Tubastatin A -0.019 | [1] 0.003 | defactinib 0.122 | rucaparib 0.227 | [2] -0.075 | encorafenib 0.06 | [3] 0.085

SNRPB isoform 3 (UniProt P14678)
inactive: saracatinib 0.113 | sotrastaurin 0.059 | alvocidib 0.104 | Tubastatin A -0.052 | [1] 0.044 | defactinib 0.194 | rucaparib 0.047 | [2] -0.057 | encorafenib -0.004 | [3] 0.011

SNRPA (UniProt P09012)
inactive: saracatinib 0.047 | sotrastaurin 0.098 | alvocidib 0.194 | Tubastatin A -0.055 | [1] -0.01 | defactinib 0.239 | rucaparib 0.17 | [2] -0.073 | encorafenib -0.033 | [3] 0.06

SORBS1 isoform 12 (UniProt Q9BX66)
inactive: saracatinib 0.059 | sotrastaurin -0.099 | alvocidib -0.015 | Tubastatin A 0.008 | [1] 0.015 | defactinib -0.046 | rucaparib -0.07 | [2] -0.038 | encorafenib -0.03 | [3] 0.027

SMIM26, A0A096LP01
inactive: saracatinib 0.079 | sotrastaurin -0.086 | alvocidib 0.008 | Tubastatin A 0.005 | [1] -0.004 | defactinib -0.016 | rucaparib -0.251 | [2] -0.154 | encorafenib 0.109 | [3] 0.063

SNRNP200 (UniProt O75643)
inactive: saracatinib 0.009 | sotrastaurin -0.037 | alvocidib 0.078 | Tubastatin A -0.035 | [1] 0.066 | defactinib 0.121 | rucaparib 0.049 | [2] -0.081 | encorafenib 0.014 | [3] 0.007

SMC3 (UniProt Q9UQE7)
inactive: saracatinib 0.008 | sotrastaurin -0.047 | alvocidib -0.073 | Tubastatin A 0.007 | [1] -0.024 | defactinib -0.055 | rucaparib -0.069 | [2] -0.019 | encorafenib 0.032 | [3] 0.02

SMARCA1 (UniProt P28370)
inactive: saracatinib -0.056 | sotrastaurin -0.111 | alvocidib 0 | Tubastatin A 0.14 | [1] -0.083 | defactinib -0.098 | rucaparib 0.017 | [2] 0 | encorafenib 0.147 | [3] -0.053

SMC2 (UniProt O95347)
inactive: saracatinib -0.02 | sotrastaurin -0.056 | alvocidib -0.016 | Tubastatin A 0.01 | [1] 0.042 | defactinib -0.04 | rucaparib 0.058 | [2] 0.024 | encorafenib 0.081 | [3] -0.012

SMNDC1 (UniProt O75940)
inactive: saracatinib 0.031 | sotrastaurin 0.073 | alvocidib 0.091 | Tubastatin A -0.038 | [1] 0.01 | defactinib 0.153 | rucaparib 0.039 | [2] -0.036 | encorafenib -0.027 | [3] 0.012

SMG7 isoform 4 (UniProt Q92540)
inactive: saracatinib -0.045 | sotrastaurin -0.116 | alvocidib -0.345 | Tubastatin A -0.003 | [1] 0.087 | defactinib -0.131 | rucaparib 0.171 | [2] 0.019 | encorafenib 0.101 | [3] -0.065

SPA17 (UniProt Q15506)
inactive: saracatinib 0.03 | sotrastaurin -0.057 | alvocidib 0.017 | Tubastatin A 0.072 | [1] -0.02 | defactinib -0.046 | rucaparib -0.043 | [2] -0.128 | encorafenib -0.03 | [3] 0.098

SNRPA1 (UniProt P09661)
inactive: saracatinib 0.061 | sotrastaurin 0 | alvocidib 0.085 | Tubastatin A -0.07 | [1] 0.003 | defactinib 0.138 | rucaparib -0.004 | [2] -0.085 | encorafenib -0.008 | [3] 0.024
